For assay [1], the target named is T1, FXR (endogenous) (mouse (endogenous in 3T3-L1)) (UniProt Q60641).
T1 sequence: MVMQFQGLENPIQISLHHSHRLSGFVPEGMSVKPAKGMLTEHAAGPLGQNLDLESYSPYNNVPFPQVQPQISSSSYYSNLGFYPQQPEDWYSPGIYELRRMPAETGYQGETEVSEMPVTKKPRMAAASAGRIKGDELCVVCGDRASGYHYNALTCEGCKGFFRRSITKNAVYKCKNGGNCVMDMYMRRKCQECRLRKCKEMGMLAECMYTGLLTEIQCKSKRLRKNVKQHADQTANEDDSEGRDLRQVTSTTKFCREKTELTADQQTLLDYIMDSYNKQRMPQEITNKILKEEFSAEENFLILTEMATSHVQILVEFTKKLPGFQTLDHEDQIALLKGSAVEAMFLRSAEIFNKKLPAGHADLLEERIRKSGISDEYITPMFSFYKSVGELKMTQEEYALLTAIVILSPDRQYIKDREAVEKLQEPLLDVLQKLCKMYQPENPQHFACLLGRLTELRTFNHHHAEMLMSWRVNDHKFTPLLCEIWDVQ
Kind of assay: co-IP; endogenous proteins; untransfected 3T3-L1 adipocyte lysate, Dynabeads conjugated with anti-FXR; Western blot for DMRT2 and FXR.

By UniProt entry, the sequences of proteins in these tests, tags left out.
UniProt Q8BG36: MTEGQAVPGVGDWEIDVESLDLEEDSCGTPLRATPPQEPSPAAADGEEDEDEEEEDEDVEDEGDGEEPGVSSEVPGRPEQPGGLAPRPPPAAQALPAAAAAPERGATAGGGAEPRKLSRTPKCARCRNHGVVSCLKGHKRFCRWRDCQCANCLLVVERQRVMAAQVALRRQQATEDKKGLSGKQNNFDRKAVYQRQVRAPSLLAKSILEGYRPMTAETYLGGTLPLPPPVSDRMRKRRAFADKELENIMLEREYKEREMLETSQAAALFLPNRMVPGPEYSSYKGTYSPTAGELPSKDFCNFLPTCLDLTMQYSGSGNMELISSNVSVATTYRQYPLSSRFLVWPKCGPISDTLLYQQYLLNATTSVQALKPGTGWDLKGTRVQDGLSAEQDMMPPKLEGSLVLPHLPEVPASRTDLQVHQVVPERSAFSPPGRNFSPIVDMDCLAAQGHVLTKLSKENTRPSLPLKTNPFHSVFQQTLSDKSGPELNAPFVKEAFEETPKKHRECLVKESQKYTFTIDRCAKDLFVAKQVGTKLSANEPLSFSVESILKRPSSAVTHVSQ

The next assay concerns the target Flag-DMRT2 (UniProt Q8BG36). The assay can be described thus: co-IP; Flag-DMRT2 and FXR-HA co-transfected into 3T3-L1 adipocytes, 48 h; lysate supernatant incubated with Dynabeads conjugated with anti-Flag at 4°C overnight; Western blot for Flag and HA. On the technique in general: A western blot detects proteins with antibodies after separation by electrophoresis.

Results are given in words; binding and its absence hold for the method and conditions named. In cells and extracts the contact can be indirect. Some results given as binding are weak or reduced against the parent protein; the word gives no strength. For some assays here: Where a sequence is shown, tags or fusion partners need not be part of it.

As to “DMRT2 (endogenous) (from UniProt Q8BG36 1-561)”, the binding result in assay [1] is listed as “binds”.

B1: FXR-HA (protein, UniProt Q60641 1-488)
chain: MVMQFQGLENPIQISLHHSHRLSGFVPEGMSVKPAKGMLTEHAAGPLGQNLDLESYSPYNNVPFPQVQPQISSSSYYSNLGFYPQQPEDWYSPGIYELRRMPAETGYQGETEVSEMPVTKKPRMAAASAGRIKGDELCVVCGDRASGYHYNALTCEGCKGFFRRSITKNAVYKCKNGGNCVMDMYMRRKCQECRLRKCKEMGMLAECMYTGLLTEIQCKSKRLRKNVKQHADQTANEDDSEGRDLRQVTSTTKFCREKTELTADQQTLLDYIMDSYNKQRMPQEITNKILKEEFSAEENFLILTEMATSHVQILVEFTKKLPGFQTLDHEDQIALLKGSAVEAMFLRSAEIFNKKLPAGHADLLEERIRKSGISDEYITPMFSFYKSVGELKMTQEEYALLTAIVILSPDRQYIKDREAVEKLQEPLLDVLQKLCKMYQPENPQHFACLLGRLTELRTFNHHHAEMLMSWRVNDHKFTPLLCEIWDVQ
For the molecule B1, the binding entry with Flag-DMRT2 was “binds”.
